Test results taken from PMC5506194.
The exact form of at least one protein or probe is not confirmed. For some of these results: A negative result means that nothing was seen under these conditions.

What was measured:
[1] = test system: LysR1; assay: EMSA; settings: 50 mM Tris-HCl, 250 mM KCl, pH 8.5, room temperature 20 min, 200 ng Cy3-DNA and 200 ng salmon sperm DNA per 30 ul, 0-1000 ng protein (pairs up to 2000 ng total), recombinant protein, protein details: C-terminal His6 (pET21a), label: Cy3-dCTP, internal
[2] = test system: LysR2; assay: EMSA; settings: 50 mM Tris-HCl, 250 mM KCl, pH 8.5, room temperature 20 min, 200 ng Cy3-DNA and 200 ng salmon sperm DNA per 30 ul, 0-1000 ng protein (pairs up to 2000 ng total), recombinant protein, protein details: C-terminal His6 (pET21a), label: Cy3-dCTP, internal

Sequence	binding result [1]	binding result ([1]; CbbL present (enhanced))	binding result ([1]; LysR2 present (enhanced, heteromultimer suggested))	binding result ([2]; CbbM present (required))	binding result ([2]; LysR2 alone)	binding result [2]	binding result ([2]; CbbM present (enhanced))
CTGGGCGGTTATATGTAAGTTTTGCATTTGGTTTTCCTAATTGGTAAACTCATAAATGGTTGATATATAAAGTAAATGAGAGGAATCATATACATTTGTTTATGAATTGTATAACAAATACTCAATATATCACCAGATTATTTTAGATAAGATACGAATCACTGAAAGCGGAAGTGTTTTTAAAACGCAATTTAAGAATCGCTTTCTCTAACTCTTTTCATGATTAAACTAAAACGAAGAGGTAAACCATGGCTAAGACTTATAACGCCGGTGTA (double strand) [ncr lysR1/cbbL]	binds	binds	binds	binds	no binding	–	–
AACCACGTTCGTTTGATTGGTTATGATAACTATGCACAGTCTCAAGGTGCGAACATGCTTATTAAGCGTGGTGACATGTAATTTTAATTAAAATTACATGACCTTACCCCTCAGGCGTTGCCTGAGGGGCCAAATTTTGAGGGGAGATTAAACATCGGGTTTAATGCTTCTCTCGCCCTGGTTTACTTAGGCAGCTTATACCTCCTGCTTAAGTAACGGCCAGCTAGCCCCGAAACTAGCTGGTTTTCAATCCATTTAGATTTACTTATTTTAATCAAGTAATGAAATCTAAATATTTTGAATGCTACTTGCCAATGGAGAAAAAACATGTCGGAAATTAACGCATTAGATCCTAGTCAATACCTTATTAAAGACGAGCCA (double strand) [ncr cbbS/cbbQ-1]	binds	–	–	binds	no binding	–	–
AGCCGCTTCATAAAGTTCAACCTCATTGGATTGAGCATCATAAAATGGTTCGTTTTCAATCTTGTATTGTGTAATGTCCATATCAGTTCCCCGTAACGTTTATGGTAGGTATTTTCAAACAGAGTGTGAAAATACCGATGAATAAATTAAAGCGATATTAAAGTCATTTAGGTTTCTGGTTTACCGTAAGACAGGTAAAAGAGAAAACTAAATAACCTTGTGTTTGGCTAGGTTTTTGGTTTGGGTGTTAAAAAAACCCCTGCGCGAACGCAGAGGTTTCTTGGGTGTTTAAATAAACATTCGTTAAAGAATGGCTTATTTGTGTACGCCCAACTTCTCTCTCCAACCTGGGTAGATTGTGTCTGCATCTG (double strand) [ncr cbbQ-m/cbbM]	binds	–	–	–	–	binds	–
TGCAGCAACTTCTAAGTAACCGTAACCAGCAGCAGGTTCCATTGTGTAAGCAACAAGAATGTGATTCTGACCAGCAATCAGATCTTCTTCTTTTAGGCTTAAATCAGCATAACGATTCGACTGATCCATGTTTTATACCTCTATATATTGGGACAACAGCTCAGGAAAGTGTGTCCATAATTTTTGTTAAGTCATTGTAAAAACAACTTAACCCCGAAATTTGAATGGTCATTATAGAGGTTGTTCAGATAACTTCAAATCAATATTTTTGATTAAATTGATAGACTATTATCTATTCTAGTGAGGTGCGATTTAAATGATGCGTAATAATCTGCAAAGTTGGGTTAGCGAAATTGGTTAAACGCCTGT (double strand) [ncr cbbM/lysR2]	binds	–	–	–	–	binds	binds
